Reference: patent US20090054321A1
Results are given in words; binding and its absence hold for the method and conditions named. For some assays here: In cells and extracts the contact can be indirect. Some binding calls cover weakened binding; strength is not graded here. For some assays here: Where a sequence is shown, tags or fusion partners need not be part of it.

By UniProt entry, the sequences of proteins in these tests, tags left out. Residues count along the entry.
UniProt O60603: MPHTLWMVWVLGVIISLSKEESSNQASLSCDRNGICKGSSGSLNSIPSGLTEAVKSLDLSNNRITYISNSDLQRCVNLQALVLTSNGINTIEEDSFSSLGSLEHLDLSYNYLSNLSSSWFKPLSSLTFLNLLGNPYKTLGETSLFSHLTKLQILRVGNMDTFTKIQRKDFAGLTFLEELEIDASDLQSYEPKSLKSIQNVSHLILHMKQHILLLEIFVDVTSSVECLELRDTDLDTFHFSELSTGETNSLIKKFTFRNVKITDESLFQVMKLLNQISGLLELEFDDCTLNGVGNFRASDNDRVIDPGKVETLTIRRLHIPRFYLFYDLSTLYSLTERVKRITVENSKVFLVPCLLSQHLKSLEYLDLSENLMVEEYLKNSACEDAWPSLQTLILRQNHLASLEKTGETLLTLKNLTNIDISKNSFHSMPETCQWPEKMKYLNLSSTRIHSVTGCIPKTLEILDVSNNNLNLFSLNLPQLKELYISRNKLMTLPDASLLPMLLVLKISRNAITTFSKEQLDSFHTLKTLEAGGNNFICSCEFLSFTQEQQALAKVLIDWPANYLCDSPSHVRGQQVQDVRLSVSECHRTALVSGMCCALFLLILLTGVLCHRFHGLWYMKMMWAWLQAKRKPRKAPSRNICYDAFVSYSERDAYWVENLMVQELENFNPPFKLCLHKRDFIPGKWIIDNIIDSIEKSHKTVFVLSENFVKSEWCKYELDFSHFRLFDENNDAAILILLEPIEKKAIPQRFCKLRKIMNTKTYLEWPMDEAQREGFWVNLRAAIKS
UniProt O00206, residues 24-839: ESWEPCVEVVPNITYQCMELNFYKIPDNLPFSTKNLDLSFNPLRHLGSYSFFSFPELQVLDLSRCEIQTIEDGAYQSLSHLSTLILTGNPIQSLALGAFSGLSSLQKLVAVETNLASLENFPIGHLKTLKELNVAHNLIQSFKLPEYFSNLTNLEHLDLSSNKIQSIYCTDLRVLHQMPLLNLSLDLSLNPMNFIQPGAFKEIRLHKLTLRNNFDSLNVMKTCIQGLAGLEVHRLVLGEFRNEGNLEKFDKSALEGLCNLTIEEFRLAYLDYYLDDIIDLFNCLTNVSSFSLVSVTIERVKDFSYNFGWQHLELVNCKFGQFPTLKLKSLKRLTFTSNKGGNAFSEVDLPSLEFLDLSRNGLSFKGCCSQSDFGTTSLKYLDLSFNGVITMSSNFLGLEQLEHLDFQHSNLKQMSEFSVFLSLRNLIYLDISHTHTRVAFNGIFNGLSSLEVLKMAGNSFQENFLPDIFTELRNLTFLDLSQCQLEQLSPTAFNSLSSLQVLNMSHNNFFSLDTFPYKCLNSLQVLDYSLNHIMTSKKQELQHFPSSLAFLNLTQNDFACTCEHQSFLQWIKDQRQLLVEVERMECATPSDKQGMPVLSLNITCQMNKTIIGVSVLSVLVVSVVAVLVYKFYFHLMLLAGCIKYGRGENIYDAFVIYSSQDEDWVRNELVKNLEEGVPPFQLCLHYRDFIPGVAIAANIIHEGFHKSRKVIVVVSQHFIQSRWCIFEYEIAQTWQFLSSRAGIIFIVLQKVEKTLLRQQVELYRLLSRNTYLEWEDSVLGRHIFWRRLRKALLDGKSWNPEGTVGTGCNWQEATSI
UniProt Q99836: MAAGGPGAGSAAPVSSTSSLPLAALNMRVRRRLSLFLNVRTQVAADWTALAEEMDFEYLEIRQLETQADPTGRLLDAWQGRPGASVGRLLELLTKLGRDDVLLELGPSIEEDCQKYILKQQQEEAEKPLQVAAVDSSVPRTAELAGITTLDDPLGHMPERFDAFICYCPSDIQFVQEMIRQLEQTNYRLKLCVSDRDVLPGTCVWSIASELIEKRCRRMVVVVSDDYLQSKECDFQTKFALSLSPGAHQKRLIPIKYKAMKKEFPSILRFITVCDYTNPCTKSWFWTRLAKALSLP

Experiments:
[1] = biological target: Flag-tagged TLR2 (UniProt O60603); test: co-immunoprecipitation, HEK-293 cells (FIG. 9A)
[2] = biological target: Flag-tagged TLR4 (UniProt O00206); test: co-immunoprecipitation, HEK-293 cells (FIG. 9A)
[3] = biological target: Myc-tagged MyD88 (UniProt Q99836); test: co-immunoprecipitation, HEK-293 cells (FIG. 9B)
[4] = biological target: Flag-tagged TLR2 (UniProt O60603); test: summary of the co-immunoprecipitation experiments
[5] = biological target: Flag-tagged TLR4 (UniProt O00206); test: summary of the co-immunoprecipitation experiments
[6] = biological target: Myc-tagged MyD88 (UniProt Q99836); test: summary of the co-immunoprecipitation experiments
[7] = biological target: Flag-tagged TLR2 (UniProt O60603); test: co-immunoprecipitation, HEK-293 cells, anti-flag beads, blot with anti-TLR14
[8] = biological target: Flag-tagged TLR4 (UniProt O00206); test: as above
[9] = biological target: Myc-tagged MyD88 (UniProt Q99836); test: co-immunoprecipitation, HEK-293 cells, anti-myc antibody on protein-A sepharose, blot with anti-TLR14
[10] = biological target: Flag-tagged TLR2 (UniProt O60603); test: immunoprecipitation of flag-tagged TLR2 from HEK-293 cells, blot with anti-TLR14
[11] = biological target: Flag-tagged TLR2 (UniProt O60603); test: immunoprecipitation of flag-tagged TLR2 from HEK-293 cells, blot with anti-TLR14 (FIG. 10)

Measured: binding

B1: TLR14 (human, KIAA0644 cDNA cloned into pcDNA 3.1 with a C-terminal hemagglutinin tag, overexpressed in HEK-293 cells) (receptor, not shown: small tags and cut ends)
chain: VCPERCDCQHPQHLLCTNRGLRVVPKTSSLPSPHDVLTYSLGGNFITNITAFDFHRLGQLRRLDLQYNQIRSLHPKTFEKLSRLEELYLGNNLLQALAPGTLAPLRKLRILYANGNEISRLSRGSFEGLESLVKLRLDGNALGALPDAVFAPLGNLLYLHLESNRIRFLGKNAFAQLGKLRFLNLSANELQPSLRHAATFAPLRSLSSLILSANSLQHLGPRIFQHLPRLGLLSLRGNQLTHLAPEAFWGLEALRELRLEGNRLSQLPTALLEPLHSLEALDLSGNELSALHPATFGHLGRLRELSLRNNALSALSGDIFAASPALYRLDLDGNGWTCDCRLRGLKRWMGDWHSQGRLLTVFVQCRHPPALRGKYLDYLDDQQLQNGSCADPSPSASLTADRRRQPLPTAAGEEMTPPAGLAEELPPQPQLQQQGRFLAGVAWDGAARELVGNRSALRLSRRGPGLQQPSPSVAAAAGPAPQSLDLHKKPQRGRPTRADPALAEPTPTASPGSAPSPAGDPWQRATKHRLGTEHQERAAQSDGGAGLPPLVSDPCDFNKFILCNLTVEAVGADSASVRWAVREHRSPRPLGGARFRLLFDRFGQQPKFHRFVYLPESSDSATLRELRGDTPYLVCVEGVLGGRVCPVAPRDHCAGLVTLPEAGSRGGVDYQLLTLALLTVNALLVLLALAAWASRWLRRKLRARRKGGAPVHVRHMYSTRRPLRSMGTGVSADFSGFQSHRPRTTVCALSEADLIEFPCDRFMDSAGGGAGGSLRREDRLLQRFAD
binds: [1] | [2] | [3] | [4] | [5] | [6] | [7] | [8] | [9]

B2: endogenous TLR14 (human; HEK-293 cells, human brain and lung tissue) (receptor)
chain: VCPERCDCQHPQHLLCTNRGLRVVPKTSSLPSPHDVLTYSLGGNFITNITAFDFHRLGQLRRLDLQYNQIRSLHPKTFEKLSRLEELYLGNNLLQALAPGTLAPLRKLRILYANGNEISRLSRGSFEGLESLVKLRLDGNALGALPDAVFAPLGNLLYLHLESNRIRFLGKNAFAQLGKLRFLNLSANELQPSLRHAATFAPLRSLSSLILSANSLQHLGPRIFQHLPRLGLLSLRGNQLTHLAPEAFWGLEALRELRLEGNRLSQLPTALLEPLHSLEALDLSGNELSALHPATFGHLGRLRELSLRNNALSALSGDIFAASPALYRLDLDGNGWTCDCRLRGLKRWMGDWHSQGRLLTVFVQCRHPPALRGKYLDYLDDQQLQNGSCADPSPSASLTADRRRQPLPTAAGEEMTPPAGLAEELPPQPQLQQQGRFLAGVAWDGAARELVGNRSALRLSRRGPGLQQPSPSVAAAAGPAPQSLDLHKKPQRGRPTRADPALAEPTPTASPGSAPSPAGDPWQRATKHRLGTEHQERAAQSDGGAGLPPLVSDPCDFNKFILCNLTVEAVGADSASVRWAVREHRSPRPLGGARFRLLFDRFGQQPKFHRFVYLPESSDSATLRELRGDTPYLVCVEGVLGGRVCPVAPRDHCAGLVTLPEAGSRGGVDYQLLTLALLTVNALLVLLALAAWASRWLRRKLRARRKGGAPVHVRHMYSTRRPLRSMGTGVSADFSGFQSHRPRTTVCALSEADLIEFPCDRFMDSAGGGAGGSLRREDRLLQRFAD
binds: [10] | [11]
